Where a name gives a salt, the structure may show the parent alone. Some of the results follow. Rule as the data show it: active = 1.25 or more and inactive = the rest. Many values rest on one well or one pass, so single values are uncertain.
Test system: Kcc2-LUC knock-in mouse primary cortical neurons (Kcc2 promoter reporter)
Experiment: Kcc2 promoter-driven luciferase activity relative to vehicle control (fold of vehicle (ratio)); higher = stronger Kcc2 promoter activation (Kcc2 expression enhancer)
Conditions: 100 nM; 48 h

SMILES | Kcc2 promoter-driven luciferase activity
Cc1ccc(S(=O)(=O)SC/C=C/CSS(=O)(=O)c2ccc(C)cc2)cc1 [Benzenesulfonothioic acid,2-butene-1,4-diyl ester, (Z)-] | inactive: 0.82
N#CC1(C#N)C2C=CC(c3coc4cccc2c34)C1(C#N)C#N (centres undefined) | inactive: 0.78
Clc1ccc(C(c2ccccc2Cl)C(Cl)Cl)cc1 (centres undefined) [Mitotane] | inactive: 0.9
COC(=O)[C@@H]1c2cc3c(c(O)c2[C@@H](OC)C[C@@]1(C)O)C(=O)c1c(O)cc2c(c1C3=O)O[C@@H]1O[C@@]2(C)[C@H](O)[C@@H](N(C)C)[C@@H]1O [Nogalamycin compound D] | inactive: 0.966
CO[C@H](C(=O)[C@@H](O)[C@@H](C)O)[C@@H]1Cc2cc3cc(O[C@H]4C[C@@H](O[C@H]5C[C@@H](O)[C@H](O)[C@@H](C)O5)[C@H](O)[C@@H](C)O4)c(C)c(O)c3c(O)c2C(=O)[C@H]1O[C@H]1C[C@@H](O[C@H]2C[C@@H](O[C@H]3C[C@](C)(O)[C@H](O)[C@@H](C)O3)[C@@H](O)[C@@H](C)O2)[C@H](O)[C@@H](C)O1 [Plicamycin] | inactive: 1.18
COc1cc(O)c2c(c1)C(=O)c1cc3c(c(O)c1C2=O)[C@@H](O[C@@H]1O[C@@H](C)[C@H](O)[C@@H](O)[C@H]1OC)[C@H](OC)[C@](C)(O)C3=O [Steffimycin] | inactive: 0.92
CCSC(=O)N1c2ccc(OC)cc2C=CC1C#N (centres undefined) [S-ethyl 2-cyano-6-methoxy-2H-quinoline-1-carbothioate] | active: 1.58
O=C1Oc2ccccc2C(=O)/C1=C1\C=C(c2ccccc2)SS1 [(3Z)-3-(5-Phenyldithiol-3-ylidene)chromane-2,4-dione] | inactive: 1
CC1=C(O)c2ccccc2C(=O)C1=O [Phthiocol] | inactive: 0.79
Cc1[nH]c(=O)[nH]c(=O)c1/C=C/C(=O)NC(CO)CC(C)C (centres undefined) | inactive: 1.03
COc1ccc2cc1Oc1ccc(cc1)C[C@@H]1c3cc(c(OC)cc3CCN1C)Oc1c(OC)c(OC)cc3c1[C@H](C2)N(C)CC3 [Isotetrandrine] | inactive: 0.99
O=c1[nH]c(=O)n(C2CCCO2)cc1F (centres undefined) [Tegafur] | inactive: 1.09
OCCNCCN1CCN(CCCN2c3ccccc3Sc3ccc(C(F)(F)F)cc32)CC1 [Ethanol, trihydrochloride] | inactive: 1.02
CC(C)C1=CC2=CC[C@@H]3[C@](C)(CCC[C@@]3(C)C(=O)O)[C@H]2CC1 [Abietic Acid] | inactive: 0.79
CC1(C)CCC2=C(O1)c1ccccc1C(=O)C2=O [Lapachone] | inactive: 1.11
O=C(NC(=O)c1c(Cl)nc2sccn12)Nc1ccc(Cl)cc1 | inactive: 1.05
O=C(CC1(O)C(=O)Nc2c(Cl)cc(Cl)cc21)c1cccc2ccccc12 (centres undefined) | inactive: 0.9
CCCCCCCCCCCCCCCCOP(=O)([O-])OCC[N+](C)(C)C [Miltefosine] | inactive: 1.19
CCc1cccc(C(C)C)c1NC(=O)/C(=N\NC(N)=O)C(C(=O)OC)c1cnc2ccccc2n1 (centres undefined) | inactive: 1.03
O=c1ncccn1C1OC(CO)C(O)C1F (centres undefined) | active: 5.79
CC(=O)NCCCCCCNC(C)=O [Hexamethylene Bisacetamide] | inactive: 1.13
Cc1cc(=O)[nH]c(NN2C(Cl)C(=O)C2c2cccc([N+](=O)[O-])c2)n1 (centres undefined) | inactive: 1.18
S=c1[nH]cnc2nc[nH]c12 [Mercaptopurine] | inactive: 1.13
CC1(Cl)CC2OC3(Br)C=CC(C)(O)C2(CC1Br)C3(C)C (centres undefined) [Pacifenol] | inactive: 1.12
CNC(=O)[C@@H](C)[C@H]1C(=O)/C(=C(O)/C=C/C(C)=C/[C@@H](C)[C@H]2O[C@@]3(C)O[C@H](C=C[C@@]34CO4)[C@@H]2C)C(=O)N1[C@@H]1CC[C@H](O)[C@H](C)O1 [Streptolydigin] | active: 1.32
Nc1ncnc2c1ncn2[C@@H]1O[C@H](CO)C[C@H]1O [9-(.beta.-D-3'-Deoxyribofuranosyl)adenine] | inactive: 1.16
CN1C(c2ccccc2)CC(=NO)CC1c1ccccc1 (centres undefined) | inactive: 0.82
COc1ccccc1/C=C1\Sc2scc(-c3cccc([N+](=O)[O-])c3)[n+]2C1=O | inactive: 0.92
O=C(CC1(O)C(=O)Nc2c(Cl)cc(Cl)cc21)c1ccc([N+](=O)[O-])cc1 (centres undefined) | inactive: 0.43

A second format for part of the listing above:
SMILES	Kcc2 promoter-driven luciferase activity
CCc1cccc(C(C)C)c1NC(=O)/C(=N\NC(N)=O)C(C(=O)OC)c1cnc2ccccc2n1 (centres undefined)	inactive: 1.03
O=c1ncccn1C1OC(CO)C(O)C1F (centres undefined)	active: 5.79
